Measured values published in patent publication US20220119490A1.
Results are given in words; binding and its absence hold for the method and conditions named. For some of these results: Binding seen in cells or lysates may run through a third protein. Some entries that bind do so weakly or less than the wild type. For some of these results: Tags and fused reporters may be left off the sequences shown. One block for each binder: values may come before it.

Chains of the proteins cited; added tags and fusions are not shown. Residues count along the entry.
UniProt O00481, residues 30-513: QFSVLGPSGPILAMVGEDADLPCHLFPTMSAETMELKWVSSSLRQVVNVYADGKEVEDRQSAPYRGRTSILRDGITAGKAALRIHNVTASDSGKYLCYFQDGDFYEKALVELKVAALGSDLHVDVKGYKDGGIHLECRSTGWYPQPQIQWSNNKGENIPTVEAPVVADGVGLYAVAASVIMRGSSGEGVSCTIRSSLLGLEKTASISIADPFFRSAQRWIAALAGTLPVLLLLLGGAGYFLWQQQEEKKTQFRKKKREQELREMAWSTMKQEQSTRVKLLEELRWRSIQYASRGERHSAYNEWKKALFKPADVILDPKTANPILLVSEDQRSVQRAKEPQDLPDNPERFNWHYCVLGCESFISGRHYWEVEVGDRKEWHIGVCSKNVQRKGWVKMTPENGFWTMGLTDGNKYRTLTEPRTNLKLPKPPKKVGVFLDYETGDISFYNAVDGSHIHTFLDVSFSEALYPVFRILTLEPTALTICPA
UniProt O00478, residues 30-584: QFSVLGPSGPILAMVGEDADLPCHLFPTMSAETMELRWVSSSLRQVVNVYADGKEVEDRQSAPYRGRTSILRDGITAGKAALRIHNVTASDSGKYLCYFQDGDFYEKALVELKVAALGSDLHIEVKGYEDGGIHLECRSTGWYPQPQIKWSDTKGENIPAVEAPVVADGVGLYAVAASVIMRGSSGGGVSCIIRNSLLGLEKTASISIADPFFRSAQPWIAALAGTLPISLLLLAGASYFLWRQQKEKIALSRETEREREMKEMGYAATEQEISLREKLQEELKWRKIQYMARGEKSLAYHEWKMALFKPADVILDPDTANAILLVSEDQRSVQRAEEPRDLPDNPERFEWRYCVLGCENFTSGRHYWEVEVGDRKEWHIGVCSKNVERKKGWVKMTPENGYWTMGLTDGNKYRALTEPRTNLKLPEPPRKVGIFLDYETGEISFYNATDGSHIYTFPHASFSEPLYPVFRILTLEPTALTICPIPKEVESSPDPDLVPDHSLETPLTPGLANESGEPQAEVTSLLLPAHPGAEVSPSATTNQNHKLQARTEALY
UniProt P78410, residues 30-334: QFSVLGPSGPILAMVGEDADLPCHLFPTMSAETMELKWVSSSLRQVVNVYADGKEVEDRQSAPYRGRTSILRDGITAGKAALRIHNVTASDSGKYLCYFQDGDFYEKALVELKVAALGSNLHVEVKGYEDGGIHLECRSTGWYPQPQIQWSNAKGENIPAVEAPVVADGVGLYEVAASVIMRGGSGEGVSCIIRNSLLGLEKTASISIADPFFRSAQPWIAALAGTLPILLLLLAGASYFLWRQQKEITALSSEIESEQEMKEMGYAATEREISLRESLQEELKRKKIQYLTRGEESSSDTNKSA
UniProt P30530, residues 26-894: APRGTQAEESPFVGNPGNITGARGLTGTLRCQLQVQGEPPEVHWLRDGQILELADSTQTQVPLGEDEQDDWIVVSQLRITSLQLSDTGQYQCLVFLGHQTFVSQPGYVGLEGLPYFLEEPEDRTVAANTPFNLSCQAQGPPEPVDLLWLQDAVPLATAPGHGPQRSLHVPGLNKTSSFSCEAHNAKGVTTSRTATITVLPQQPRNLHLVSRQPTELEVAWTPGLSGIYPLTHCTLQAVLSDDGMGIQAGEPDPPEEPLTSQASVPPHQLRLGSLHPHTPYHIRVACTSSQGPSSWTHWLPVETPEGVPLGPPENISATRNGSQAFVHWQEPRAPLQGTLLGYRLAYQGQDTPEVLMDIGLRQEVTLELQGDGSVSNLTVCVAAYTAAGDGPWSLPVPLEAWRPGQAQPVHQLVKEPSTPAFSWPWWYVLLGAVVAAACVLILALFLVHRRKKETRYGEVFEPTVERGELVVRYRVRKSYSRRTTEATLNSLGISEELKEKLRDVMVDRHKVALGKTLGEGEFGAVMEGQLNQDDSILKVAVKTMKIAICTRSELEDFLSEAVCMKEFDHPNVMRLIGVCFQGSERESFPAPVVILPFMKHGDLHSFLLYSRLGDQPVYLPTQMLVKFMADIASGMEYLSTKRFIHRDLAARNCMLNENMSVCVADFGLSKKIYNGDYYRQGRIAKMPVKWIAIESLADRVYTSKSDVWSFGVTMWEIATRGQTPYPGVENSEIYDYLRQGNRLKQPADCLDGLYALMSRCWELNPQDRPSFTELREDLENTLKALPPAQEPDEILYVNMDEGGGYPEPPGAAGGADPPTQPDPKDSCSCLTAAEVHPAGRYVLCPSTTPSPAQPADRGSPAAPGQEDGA
UniProt Q92823, residues 25-1167: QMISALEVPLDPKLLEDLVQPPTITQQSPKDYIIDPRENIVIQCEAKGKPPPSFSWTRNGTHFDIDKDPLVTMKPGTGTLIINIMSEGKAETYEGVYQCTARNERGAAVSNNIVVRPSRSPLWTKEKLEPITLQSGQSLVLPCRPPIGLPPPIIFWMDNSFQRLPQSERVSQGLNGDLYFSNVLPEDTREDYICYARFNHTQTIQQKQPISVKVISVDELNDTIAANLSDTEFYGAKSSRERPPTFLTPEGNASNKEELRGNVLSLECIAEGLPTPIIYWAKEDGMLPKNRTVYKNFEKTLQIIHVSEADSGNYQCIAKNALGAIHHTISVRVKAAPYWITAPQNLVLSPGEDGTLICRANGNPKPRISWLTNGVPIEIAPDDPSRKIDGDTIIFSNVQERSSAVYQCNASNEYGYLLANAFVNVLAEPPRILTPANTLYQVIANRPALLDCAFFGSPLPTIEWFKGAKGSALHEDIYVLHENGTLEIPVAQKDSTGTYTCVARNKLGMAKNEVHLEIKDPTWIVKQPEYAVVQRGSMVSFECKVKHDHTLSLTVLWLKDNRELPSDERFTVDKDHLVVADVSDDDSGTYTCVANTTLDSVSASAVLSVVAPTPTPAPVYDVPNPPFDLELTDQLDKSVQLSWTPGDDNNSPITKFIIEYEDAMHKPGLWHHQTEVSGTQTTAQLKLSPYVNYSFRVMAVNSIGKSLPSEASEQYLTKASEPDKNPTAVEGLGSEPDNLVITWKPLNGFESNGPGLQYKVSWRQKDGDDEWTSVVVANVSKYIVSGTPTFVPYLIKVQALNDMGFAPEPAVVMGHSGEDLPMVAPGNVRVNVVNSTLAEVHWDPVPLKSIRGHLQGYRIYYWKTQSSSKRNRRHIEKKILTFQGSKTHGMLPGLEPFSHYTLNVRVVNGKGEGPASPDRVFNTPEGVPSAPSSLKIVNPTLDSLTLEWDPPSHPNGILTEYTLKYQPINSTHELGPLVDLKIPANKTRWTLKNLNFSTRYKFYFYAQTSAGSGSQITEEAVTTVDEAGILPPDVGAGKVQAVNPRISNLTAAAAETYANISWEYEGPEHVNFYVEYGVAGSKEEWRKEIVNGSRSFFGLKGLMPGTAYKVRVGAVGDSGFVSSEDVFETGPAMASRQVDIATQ

Key:
[1] = target: BTN3A1 full-length (co-IP) (human) (UniProt O00481); assay: co-immunoprecipitation from co-transfected cells, IP anti-FLAG, western blot
[2] = target: BTN3A3 full-length (co-IP) (human) (UniProt O00478); assay: as above
[3] = target: BTN3A2 full-length (co-IP) (human) (UniProt P78410); assay: as above
[4] = target: BTN3A1 full-length (co-IP) (human) (UniProt O00481); assay: co-immunoprecipitation from co-transfected cells, IP anti-FLAG, western blot anti-HA
ANTRX1 = assay: cell surface interaction assay: query ECD tetramerised with fluorescent streptavidin on transfected cells, immunofluorescence
[5] = target: AXL full-length (co-IP) (human) (UniProt P30530); assay: co-immunoprecipitation from co-transfected cells, IP anti-FLAG, western blot
[6] = target: NRCAM (recombinant) (human) (UniProt Q92823); assay: SPR, NRCAM immobilized, CNTN1 ECD-Fc injected at 250 nM
[7] = target: T1, NFASC (recombinant) (human) (UniProt O94856); assay: SPR, NFASC immobilized, CNTN1 ECD-Fc injected at 250 nM
T1 sequence (looked up): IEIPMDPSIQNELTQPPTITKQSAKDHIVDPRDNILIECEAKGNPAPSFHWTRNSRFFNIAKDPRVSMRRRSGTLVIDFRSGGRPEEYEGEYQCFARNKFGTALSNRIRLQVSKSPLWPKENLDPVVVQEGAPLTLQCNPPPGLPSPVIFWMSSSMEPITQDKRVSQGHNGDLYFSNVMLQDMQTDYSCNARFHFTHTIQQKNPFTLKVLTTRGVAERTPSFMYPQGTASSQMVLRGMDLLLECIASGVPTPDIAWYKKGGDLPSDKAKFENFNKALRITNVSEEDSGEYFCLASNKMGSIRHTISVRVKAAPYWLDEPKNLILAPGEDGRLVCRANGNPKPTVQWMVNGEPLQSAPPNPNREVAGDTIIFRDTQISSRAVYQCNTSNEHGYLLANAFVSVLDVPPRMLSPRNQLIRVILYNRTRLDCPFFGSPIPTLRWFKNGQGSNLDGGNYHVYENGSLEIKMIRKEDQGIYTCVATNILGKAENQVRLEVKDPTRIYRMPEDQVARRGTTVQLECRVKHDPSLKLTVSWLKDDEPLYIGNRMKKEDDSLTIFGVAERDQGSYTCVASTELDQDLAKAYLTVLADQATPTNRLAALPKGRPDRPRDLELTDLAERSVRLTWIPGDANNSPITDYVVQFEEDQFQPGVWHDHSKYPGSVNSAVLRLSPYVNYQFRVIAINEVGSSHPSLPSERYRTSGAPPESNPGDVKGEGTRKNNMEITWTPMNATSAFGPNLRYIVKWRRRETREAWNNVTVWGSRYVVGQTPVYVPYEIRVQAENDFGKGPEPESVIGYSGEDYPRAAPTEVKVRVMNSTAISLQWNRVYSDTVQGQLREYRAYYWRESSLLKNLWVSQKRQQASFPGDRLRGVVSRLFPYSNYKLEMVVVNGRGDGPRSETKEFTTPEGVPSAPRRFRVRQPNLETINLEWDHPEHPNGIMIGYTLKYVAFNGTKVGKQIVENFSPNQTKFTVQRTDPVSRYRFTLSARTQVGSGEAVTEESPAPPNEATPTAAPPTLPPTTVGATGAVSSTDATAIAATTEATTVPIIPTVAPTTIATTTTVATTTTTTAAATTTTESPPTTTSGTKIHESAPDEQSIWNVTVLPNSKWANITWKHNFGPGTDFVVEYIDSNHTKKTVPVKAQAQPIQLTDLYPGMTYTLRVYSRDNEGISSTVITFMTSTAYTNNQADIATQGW

binding (ANTRX1): binds
B2: TREML2 (receptor, human, UniProt Q5T2D2 19-268, looked up)
soluble query ectodomain: GPSADSVYTKVRLLEGETLSVQCSYKGYKNRVEGKVWCKIRKKKCEPGFARVWVKGPRYLLQDDAQAKVVNITMVALKLQDSGRYWCMRNTSGILYPLMGFQLDVSPAPQTERNIPFTHLDNILKSGTVTTGQAPTSGPDAPFTTGVMVFTPGLITLPRLLASTRPASKTGYSFTATSTTSQGPRRTMGSQTVTASPSNARDSSAGPESISTKSGDLSTRSPTTGLCLTSRSLLNRLPSMPSIRHQDVYS
modifications: biotinylated

binding [5]: binds
B3: VSIG10L full-length (co-IP) (receptor, human, UniProt Q86VR7 28-867, looked up)
chain: LQQTNFSSAFSSDSKSSSQGLGVEVPSIKPPSWKVPDQFLDSKASAGISDSSWFPEALSSNMSGSFWSNVSAEGQDLSPVSPFSETPGSEVFPDISDPQVPAKDPKPSFTVKTPASNISTQVSHTKLSVEAPDSKFSPDDMDLKLSAQSPESKFSAETHSAASFPQQVGGPLAVLVGTTIRLPLVPIPNPGPPTSLVVWRRGSKVLAAGGLGPGAPLISLDPAHRDHLRFDQARGVLELASAQLDDAGVYTAEVIRAGVSQQTHEFTVGVYEPLPQLSVQPKAPETEEGAAELRLRCLGWGPGRGELSWSRDGRALEAAESEGAETPRMRSEGDQLLIVRPVRSDHARYTCRVRSPFGHREAAADVSVFYGPDPPTITVSSDRDAAPARFVTAGSNVTLRCAAASRPPADITWSLADPAEAAVPAGSRLLLPAVGPGHAGTYACLAANPRTGRRRRSLLNLTVADLPPGAPQCSVEGGPGDRSLRFRCSWPGGAPAASLQFQGLPEGIRAGPVSSVLLAAVPAHPRLSGVPITCLARHLVATRTCTVTPEAPREVLLHPLVAETRLGEAEVALEASGCPPPSRASWAREGRPLAPGGGSRLRLSQDGRKLHIGNFSLDWDLGNYSVLCSGALGAGGDQITLIGPSISSWRLQRARDAAVLTWDVERGALISSFEIQAWPDGPALGRTSTYRDWVSLLILGPQERSAVVPLPPRNPGTWTFRILPILGGQPGTPSQSRVYRAGPTLSHGAIAGIVLGSLLGLALLAVLLLLCICCLCRFRGKTPEKKKHPSTLVPVVTPSEKKMHSVTPVEISWPLDLKVPLEDHSSTRAYQAQTPVQLSL

binding [4]: binds
B6: LRRC4C-FLAG (receptor, human, UniProt Q9HCJ2 45-640, looked up)
immunoprecipitated protein: QTCPSVCSCSNQFSKVICVRKNLREVPDGISTNTRLLNLHENQIQIIKVNSFKHLRHLEILQLSRNHIRTIEIGAFNGLANLNTLELFDNRLTTIPNGAFVYLSKLKELWLRNNPIESIPSYAFNRIPSLRRLDLGELKRLSYISEGAFEGLSNLRYLNLAMCNLREIPNLTPLIKLDELDLSGNHLSAIRPGSFQGLMHLQKLWMIQSQIQVIERNAFDNLQSLVEINLAHNNLTLLPHDLFTPLHHLERIHLHHNPWNCNCDILWLSWWIKDMAPSNTACCARCNTPPNLKGRYIGELDQNYFTCYAPVIVEPPADLNVTEGMAAELKCRASTSLTSVSWITPNGTVMTHGAYKVRIAVLSDGTLNFTNVTVQDTGMYTCMVSNSVGNTTASATLNVTAATTTPFSYFSTVTVETMEPSQDEARTTDNNVGPTPVVDWETTNVTTSLTPQSTRSTEKTFTIPVTDINSGIPGIDEVMKTTKIIIGCFVAITLMAAVMLVIFYKMRKQHHRQNHHAPTRTVEIINVDDEITGDTPMESHLPMPAIEHEHLNHYNSYKSPFNHTTTVNTINSIHSSVHEPLLIRMNSKDNVQETQI

Further lines, the binder ahead of its results:

B1: LRRC4B expressed on cells (receptor, human, UniProt Q9NT99 36-713, looked up)
chain: AGGGGVAVTSAAGGGSPPATSCPVACSCSNQASRVICTRRDLAEVPASIPVNTRYLNLQENGIQVIRTDTFKHLRHLEILQLSKNLVRKIEVGAFNGLPSLNTLELFDNRLTTVPTQAFEYLSKLRELWLRNNPIESIPSYAFNRVPSLRRLDLGELKRLEYISEAAFEGLVNLRYLNLGMCNLKDIPNLTALVRLEELELSGNRLDLIRPGSFQGLTSLRKLWLMHAQVATIERNAFDDLKSLEELNLSHNNLMSLPHDLFTPLHRLERVHLNHNPWHCNCDVLWLSWWLKETVPSNTTCCARCHAPAGLKGRYIGELDQSHFTCYAPVIVEPPTDLNVTEGMAAELKCRTGTSMTSVNWLTPNGTLMTHGSYRVRISVLHDGTLNFTNVTVQDTGQYTCMVTNSAGNTTASATLNVSAVDPVAAGGTGSGGGGPGGSGGVGGGSGGYTYFTTVTVETLETQPGEEALQPRGTEKEPPGPTTDGVWGGGRPGDAAGPASSSTTAPAPRSSRPTEKAFTVPITDVTENALKDLDDVMKTTKIIIGCFVAITFMAAVMLVAFYKLRKQHQLHKHHGPTRTVEIINVEDELPAASAVSVAAAAAVASGGGVGGDSHLALPALERDHLNHHHYVAAAFKAHYSSNPSGGGCGGKGPPGLNSIHEPLLFKSGSKENVQETQI
binding [1]: binds
binding [2]: binds
binding [3]: binds
binding [4]: binds

B4: CNTN1 extracellular domain (receptor, human, UniProt Q12860 21-993, looked up)
chain: EFTWYRRYGHGVSEEDKGFGPIFEEQPINTIYPEESLEGKVSLNCRARASPFPVYKWRMNNGDVDLTSDRYSMVGGNLVINNPDKQKDAGIYYCLASNNYGMVRSTEATLSFGYLDPFPPEERPEVRVKEGKGMVLLCDPPYHFPDDLSYRWLLNEFPVFITMDKRRFVSQTNGNLYIANVEASDKGNYSCFVSSPSITKSVFSKFIPLIPIPERTTKPYPADIVVQFKDVYALMGQNVTLECFALGNPVPDIRWRKVLEPMPSTAEISTSGAVLKIFNIQLEDEGIYECEAENIRGKDKHQARIYVQAFPEWVEHINDTEVDIGSDLYWPCVATGKPIPTIRWLKNGYAYHKGELRLYDVTFENAGMYQCIAENTYGAIYANAELKILALAPTFEMNPMKKKILAAKGGRVIIECKPKAAPKPKFSWSKGTEWLVNSSRILIWEDGSLEINNITRNDGGIYTCFAENNRGKANSTGTLVITDPTRIILAPINADITVGENATMQCAASFDPALDLTFVWSFNGYVIDFNKENIHYQRNFMLDSNGELLIRNAQLKHAGRYTCTAQTIVDNSSASADLVVRGPPGPPGGLRIEDIRATSVALTWSRGSDNHSPISKYTIQTKTILSDDWKDAKTDPPIIEGNMEAARAVDLIPWMEYEFRVVATNTLGRGEPSIPSNRIKTDGAAPNVAPSDVGGGGGRNRELTITWAPLSREYHYGNNFGYIVAFKPFDGEEWKKVTVTNPDTGRYVHKDETMSPSTAFQVKVKAFNNKGDGPYSLVAVINSAQDAPSEAPTEVGVKVLSSSEISVHWEHVLEKIVESYQIRYWAAHDKEEAANRVQVTSQEYSARLENLLPDTQYFIEVGACNSAGCGPPSDMIEAFTKKAPPSQPPRIISSVRSGSRYIITWDHVVALSNESTVTGYKVLYRPDGQHDGKLYSTHKHSIEVPIPRDGEYVVEVRAHSDGGDGVVSQVKIS
binding [6]: binds
binding [7]: binds

B5: CDH9-FLAG (receptor, human, UniProt Q9ULB4 54-789, looked up)
immunoprecipitated protein: GWMWNQFFLLEEYTGTDTQYVGKLHTDQDKGDGNLKYILTGDGAGSLFVIDENTGDIHAAKKLDREEKSLYILRAKAIDRKTGRQVEPESEFIIKIHDINDNEPKFTKDLYTASVPEMSGVGTSVIQVTATDADDANYGNSAKVVYSILQGQPYFSVDPESGIIKTALPDMSRENREQYQVVIQAKDMGGQMGGLSGTTTVNITLTDVNNNPPRFPQSTYQFNSPESVPLGTHLGRIKANDPDVGENAEMEYSIAEGDGADMFDVITDKDTQEGIITVKQNLDFENQMLYTLRVDASNTHPDPRFLHLGPFKDTAVVKISVEDIDEPPVFTKVSYLIEVDEDVKEGSIIGQVTAYDPDARNNLIKYSVDRHTDMDRIFGIHSENGSIFTLKALDRESSPWHNITVTATEINNPKQSSHIPVFIRILDINDHAPEFAMYYETFVCENAKPGQLIQTVSVMDKDDPPRGHKFFFEPVPEFTLNPNFTIVDNKDNTAGIMTRKDGYSRNKMSTYLLPILIFDNDYPIQSSTGTLTIRVCACDNQGNMQSCTAEALILSAGLSTGALVAILLCVLILLILVVLFAALKRQRKKEPLIISKDDVRDNIVTYNDEGGGEEDTQAFDIGTLRNPEAREDSKLRRDVMPETIFQIRRTVPLWENIDVQDFIHRRLKENDADPSAPPYDSLATYAYEGNDSIADSLSSLESLTADCNQDYDYLSDWGPRFKKLADMYGGDDSDRD
binding [4]: binds
